# Some of these results come from one statement about several compounds together.
# Assay: Hydrolysis of prodrug esters in phosphate buffer pH 7.33, followed by reverse phase TLC
# Format: physicochemical
# Conditions: phosphate buffer pH=7.33, room temperature
# Description: hydrolyze faster than alkyl esters like DOX-mGA3 due to the better leaving ability of the ester group of 1. This is caused by the electron-withdrawing properties of the triazol functionality. Indeed in a phosphate buffer with pH=7.33 it took 24 hrs at room temperature before DOX-mGA3 was completely hydrolyzed. The DOX derivatives of 1 with n=7 or 12 and x=1 (DOX-mPEG7GA3 and DOX-mPEG12GA3) were, nevertheless, already hydrolyzed within 4 hrs under these circumstances.
# The hydrolysis of the DOX esters were qualitatively followed with reverse phase TLC (RP18). With eluens acetonitril/water: 42/58 in a phosphate buffer (KH2PO4/Na2HPO4) of pH=7.33.
# DOX-mGA3 0.29 mg was dissolved in 1 ml of buffer together with some drops of DMSO to keep the DOX-mGA3 dissolved. It took 24 hrs before the starting compound had disappeared.
# In the same way the hydrolysis of DOX-triazol esters 1 (n=, 7 and 12, x=1) were followed for 0.35 mg/ml and 0.45 mg/ml buffer. Both esters were completely hydrolyzed within 4 hrs.
row,SMILES,time until completely hydrolyzed [h]
1,COCCOCCOCCOCCOCCOCCOCCn1cc(COC(=O)C2OC(OC(=O)Nc3ccc(COC(=O)NC4CC(OC5CC(O)(C(=O)CO)Cc6c(O)c7c(c(O)c65)C(=O)c5c(OC)cccc5C7=O)OC(C)C4O)cc3)C(O)C(O)C2O)nn1 (centres unmarked) [DOX-mPEG7-GA3],≤ 4
2,COCCOCCOCCOCCOCCOCCOCCOCCOCCOCCOCCOCCn1cc(COC(=O)C2OC(OC(=O)Nc3ccc(COC(=O)NC4CC(OC5CC(O)(C(=O)CO)Cc6c(O)c7c(c(O)c65)C(=O)c5c(OC)cccc5C7=O)OC(C)C4O)cc3)C(O)C(O)C2O)nn1 (centres unmarked) [DOX-mPEG12GA3],≤ 4

# From patent US20090227617A1, “Esters Of Glucuronide Prodrugs Of Anthracyclines And Method Of Preparation And Use In Tumor-Selective Chemotherapy” (Pharmachemie B.V., priority 2008, published 2009)
